# Assay results taken from the supplement of paper PMC8728848.
# Some of the results follow.
# B1: SspB A3vp1 (Streptococcus gordonii), Q54186 (protein)
# chain: MTNEADYQAKLAAYQTELARVQKANADAKATYEKAVEDNKAKNAAIKAENEEIKQRNAVAKTDYEAKLAKYEADLAKYKKEFAAYTAALAEAESKKKQDGYLSEPRSQSLNFKSEPNAIRTIDSSVHQYGQQELDALVKSWGISPTNPDRKKSRAYSYFNAINSNNTYAKLVLEKDKPVDVTYTGLKNSSFNGKKISKVVYTYTLKETGFNDGTKMTMFASSDPTVTAWYNDYFTSTNINVKVKFYDEEGQLMNLTGGLVNFSSLNRGNGSGAIDKDAIESVRNFNGRYIPISGSSIKIHENNSAYADSSNAEKSLGARWNTSEWDTTSSPNNWYGAIVGEITQSEISFNMASSKSGNIWFAFNSNINAIGVPTKPVAPTAPTQPMYETEKPLEPAPVAPSYENEPTPPVKTPDQPEPSKPAAALEHHHHHH
# Key:
# Experiment in all cases: glycan array binding signal (z-score within array); higher = stronger binding
# Conditions in all cases: glycan notation: IUPAC condensed, linker removed
# [1] = target: GalNAc(b1-4)GlcNAc(b1-2)Man
# Method in brief: (§1)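 From the Consortium for Functional Glycomics database, 3228 arrays were curated, keeping only those whose protein sequence was available. Binding is given as a within-array Z-score averaged across arrays sharing a protein sequence and across linkers. Negative Z-scores can be read as non-binding.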
# [2] = target: GalNAc(b1-4)GlcNAc(b1-2)Man(a1-3)[GalNAc(b1-4)GlcNAc(b1-2)Man(a1-6)]Man(b1-4)GlcNAc(b1-4)GlcNAc
# Method in brief: as §1
# [3] = target: GalNAc(b1-4)GlcNAc(b1-3)GalNAc(b1-4)GlcNAc
# Method in brief: as §1
# GalNAc(b1-4)GlcNAc6S = target: GalNAc(b1-4)GlcNAc6S
# Method in brief: as §1
# GalNAc(b1-6)GalNAc = target: GalNAc(b1-6)GalNAc
# Method in brief: as §1
# GalNAc3S(b1-4)GlcNAc = target: GalNAc3S(b1-4)GlcNAc
# Method in brief: as §1
# GalNAc3S(b1-4)GlcNAc3S = target: GalNAc3S(b1-4)GlcNAc3S
# Method in brief: as §1
# [4] = target: GalNAc3S(b1-4)[Fuc(a1-3)]GlcNAc
# Method in brief: as §1
# GalNAc4S6S(b1-4)GlcNAc = target: GalNAc4S6S(b1-4)GlcNAc
# Method in brief: as §1
# GalNAc6S(b1-4)GlcNAc = target: GalNAc6S(b1-4)GlcNAc
# Method in brief: as §1
# Glc(a1-4)Glc = target: Glc(a1-4)Glc
# Method in brief: as §1
# [5] = target: Glc(a1-4)Glc(a1-4)Glc(a1-4)Glc
# Method in brief: as §1
# Glc(a1-6)Glc(a1-6)Glc = target: Glc(a1-6)Glc(a1-6)Glc
# Method in brief: as §1
# [6] = target: Glc(a1-6)Glc(a1-6)Glc(a1-6)Glc
# Method in brief: as §1
# Glc(b1-4)Glc = target: Glc(b1-4)Glc
# Method in brief: as §1
# Glc(b1-6)Glc = target: Glc(b1-6)Glc
# Method in brief: as §1
# GlcA(b1-3)Gal = target: GlcA(b1-3)Gal
# Method in brief: as §1
# GlcA(b1-3)GlcNAc = target: GlcA(b1-3)GlcNAc
# Method in brief: as §1
# GlcA(b1-6)Gal = target: GlcA(b1-6)Gal
# Method in brief: as §1
# [7] = target: GlcA3S(b1-3)Gal(b1-4)GlcNAc(b1-2)Man
# Method in brief: as §1
# [8] = target: GlcA3S(b1-3)Gal(b1-4)GlcNAc(b1-3)Gal(b1-4)Glc
# Method in brief: as §1
# [9] = target: GlcNAc(a1-3)Gal(b1-4)GlcNAc
# Method in brief: as §1
# [10] = target: GlcNAc(a1-4)Gal(b1-3)GlcNAc
# Method in brief: as §1
# [11] = target: GlcNAc(a1-4)Gal(b1-4)GalNAc
# Method in brief: as §1
# [12] = target: GlcNAc(a1-4)Gal(b1-4)GlcNAc
# Method in brief: as §1
# [13] = target: GlcNAc(a1-4)Gal(b1-4)GlcNAc(b1-3)Gal(b1-4)Glc
# Method in brief: as §1
# [14] = target: GlcNAc(a1-4)Gal(b1-4)GlcNAc(b1-3)Gal(b1-4)GlcNAc
# Method in brief: as §1
# [15] = target: GlcNAc(a1-4)Gal(b1-4)GlcNAc(b1-3)Gal(b1-4)GlcNAc(b1-3)Gal(b1-4)GlcNAc
# Method in brief: as §1
# [16] = target: GlcNAc(a1-4)Gal(b1-4)GlcNAc(b1-3)Gal(b1-4)[Fuc(a1-3)]GlcNAc(b1-3)Gal(b1-4)[Fuc(a1-3)]GlcNAc
# Method in brief: as §1
# [17] = target: GlcNAc(a1-6)Gal(b1-4)GlcNAc
# Method in brief: as §1
# [18] = target: GlcNAc(b1-2)Gal(b1-3)GalNAc
# Method in brief: as §1
# [19] = target: GlcNAc(b1-2)Man(a1-3)[GlcNAc(b1-2)Man(a1-6)]Man(b1-4)GlcNAc(b1-4)GlcNAc
# Method in brief: as §1
# [20] = target: GlcNAc(b1-2)Man(a1-3)[GlcNAc(b1-2)Man(a1-6)]Man(b1-4)GlcNAc(b1-4)[Fuc(a1-6)]GlcNAc
# Method in brief: as §1
# [21] = target: GlcNAc(b1-2)Man(a1-3)[GlcNAc(b1-4)][GlcNAc(b1-2)Man(a1-6)]Man(b1-4)GlcNAc(b1-4)GlcNAc
# Method in brief: as §1
# [22] = target: GlcNAc(b1-2)Man(a1-3)[GlcNAc(b1-4)][GlcNAc(b1-2)Man(a1-6)]Man(b1-4)GlcNAc(b1-4)[Fuc(a1-6)]GlcNAc
# Method in brief: as §1
# [23] = target: GlcNAc(b1-2)[GlcNAc(b1-4)]Man(a1-3)[GlcNAc(b1-2)Man(a1-6)]Man(b1-4)GlcNAc(b1-4)GlcNAc
# Method in brief: as §1
# [24] = target: GlcNAc(b1-2)[GlcNAc(b1-4)]Man(a1-3)[GlcNAc(b1-4)][GlcNAc(b1-2)Man(a1-6)]Man(b1-4)GlcNAc(b1-4)GlcNAc
# Method in brief: as §1
binder,measurement,setting,value
B1,glycan array binding signal (z-score),[1],-0.385
same,glycan array binding signal (z-score),[2],-0.48
same,glycan array binding signal (z-score),[3],1.28
same,glycan array binding signal (z-score),GalNAc(b1-4)GlcNAc6S,-0.104
same,glycan array binding signal (z-score),GalNAc(b1-6)GalNAc,0.292
same,glycan array binding signal (z-score),GalNAc3S(b1-4)GlcNAc,-1.32
same,glycan array binding signal (z-score),GalNAc3S(b1-4)GlcNAc3S,0.461
same,glycan array binding signal (z-score),[4],-0.301
same,glycan array binding signal (z-score),GalNAc4S6S(b1-4)GlcNAc,-0.729
same,glycan array binding signal (z-score),GalNAc6S(b1-4)GlcNAc,-0.623
same,glycan array binding signal (z-score),Glc(a1-4)Glc,0.194
same,glycan array binding signal (z-score),[5],-0.964
same,glycan array binding signal (z-score),Glc(a1-6)Glc(a1-6)Glc,-0.421
same,glycan array binding signal (z-score),[6],0.88
same,glycan array binding signal (z-score),Glc(b1-4)Glc,-0.759
same,glycan array binding signal (z-score),Glc(b1-6)Glc,-0.58
same,glycan array binding signal (z-score),GlcA(b1-3)Gal,0.34
same,glycan array binding signal (z-score),GlcA(b1-3)GlcNAc,-0.903
same,glycan array binding signal (z-score),GlcA(b1-6)Gal,-0.084
same,glycan array binding signal (z-score),[7],-1.19
same,glycan array binding signal (z-score),[8],-1.2
same,glycan array binding signal (z-score),[9],-0.25
same,glycan array binding signal (z-score),[10],-0.98
same,glycan array binding signal (z-score),[11],0.655
same,glycan array binding signal (z-score),[12],-0.84
same,glycan array binding signal (z-score),[13],-1.28
same,glycan array binding signal (z-score),[14],-0.995
same,glycan array binding signal (z-score),[15],-1.01
same,glycan array binding signal (z-score),[16],1.62
same,glycan array binding signal (z-score),[17],-0.617
same,glycan array binding signal (z-score),[18],-0.865
same,glycan array binding signal (z-score),[19],-0.445
same,glycan array binding signal (z-score),[20],0.426
same,glycan array binding signal (z-score),[21],-0.271
same,glycan array binding signal (z-score),[22],-1.06
same,glycan array binding signal (z-score),[23],-1.22
same,glycan array binding signal (z-score),[24],-1.19

# Quoted at random: 3 records from the list.
binder,measurement,setting,value
B1,glycan array binding signal (z-score),[9],-0.25
same,glycan array binding signal (z-score),[21],-0.271
same,glycan array binding signal (z-score),[23],-1.22
